Reference: PubChem BioAssay AID624415 (National Center for Advancing Translational Sciences (NCATS), 2012)
Hit rate of the full screen: of about 390,000 compounds, about 60 (0.02%) were called active. Inconclusive means that the source gave no clear call. Such entries were picked first, then a sample of the others. Cut-off read from the data, not from the text of the source: active = activity change below about -50%; inconclusive = between about -30% and that limit; inactive = weaker than that.

Amino acid sequences for entries named in this document (tags omitted).
UniProt Q9GZU1, whole entry, looked up: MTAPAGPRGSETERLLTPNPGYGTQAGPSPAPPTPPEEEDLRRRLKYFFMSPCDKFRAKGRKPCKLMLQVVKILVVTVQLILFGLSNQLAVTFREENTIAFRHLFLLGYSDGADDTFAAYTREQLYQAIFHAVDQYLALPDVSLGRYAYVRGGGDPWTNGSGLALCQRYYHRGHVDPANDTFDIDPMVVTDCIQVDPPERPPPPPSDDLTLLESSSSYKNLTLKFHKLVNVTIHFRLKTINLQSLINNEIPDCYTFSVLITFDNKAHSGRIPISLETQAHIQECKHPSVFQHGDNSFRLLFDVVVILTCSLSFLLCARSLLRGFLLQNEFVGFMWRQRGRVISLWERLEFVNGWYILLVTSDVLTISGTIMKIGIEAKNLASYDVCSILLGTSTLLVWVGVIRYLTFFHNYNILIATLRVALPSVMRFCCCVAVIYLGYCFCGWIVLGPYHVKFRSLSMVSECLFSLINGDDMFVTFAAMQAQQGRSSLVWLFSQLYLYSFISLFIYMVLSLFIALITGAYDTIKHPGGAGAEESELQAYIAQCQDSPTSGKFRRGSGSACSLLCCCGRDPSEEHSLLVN

Molecular target: Mucolipin-1 (Homo sapiens) (UniProt Q9GZU1)
Assay: qHTS for Inhibitors of the Human Mucolipin Transient Receptor Potential 1 (TRPML1);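 note: stimulus is agonist 54-4 at its EC80 concentration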
Details: TRPML1-inducible cells, Ca2+ dye fluorescence, FDSS; active compounds read low; inhibition of EC80 agonist-evoked calcium signal
Excerpt: Mutations of human Mucolipin transient receptor potential 1 (TRPML1) cause type IV mucolipidosis (ML4), a devastating neurodegenerative disease in young children. […] Currently, there is no treatment for ML4. […] Under physiological conditions, TRPMLs regulate membrane trafficking by transducing information about PI(3,5)P2 levels into changes in juxtaorganellar Ca2+, thereby triggering membrane fusion/fission events in the late endocytic pathways (endolysosomal trafficking). In addition, TRPML1 mediates release of Fe2+ from late endosomes and lysosomes, which is essential for cellular iron metabolism. Thus, impaired ion (Ca2+ and Fe2+) homeostasis underlies lysosomal dysfunction and ML4 phenotypes. In ML4 cells, the problem is twofold. First, defective Ca2+-dependent membrane trafficking due to TRPML1-deficiency causes accumulation of lipids and other bio-materials in the lysosome. The second strike comes from the lysosomal iron overload (due to impairment of TRPML1's Fe2+ conductivity), which converts the accumulated materials into the nondegradable (resistant to lysosomal degradation) lipofuscin (also called aging pigment) in the lysosome. Lipofuscin accumulation dramatically compromises the functions of lysosomes.
Niemann-Pick type C (NPC) disease is another lysosome storage disease (LSD) with severe neurodegeneration during the childhood. Currently, there is no cure for NPC. […] Thus, TRPML1 is likely to be an essential regulator of lysosome ion homeostasis. We specifically hypothesize that stimulating TRPML1's Fe2+/Ca2+ channel activity in the lysosome using synthetic agonists can alleviate neurodegeneration associated with ML4 or NPC.
To this end, a high throughput screen was developed in a miniaturized format to screen against the Molecular Libraries Small Molecule Repository (MLSMR) to find small molecules that act either as inhibitors or agonist against the TRPML1 channel.
NIH Chemical Genomics Center [NCGC]
NIH Molecular Libraries Probe Centers Network [MLPCN]
Assay Submitter (PI): Haoxing Xu, University of Michigan Ann Arbor
TRPML1-DL cells are dissociated from flasks, counted and, brought up to a density of 500,000 cells per mL of media containing a 1X Tet inducer. Using a Multidrop Combi, 3 uL of this cell solution is dispensed to each well of a 1536 TC treated, black, clear bottom hi base plate for a final cell density of 1,500 cells per well. The assay plates are incubated overnight (approximately 16 hours) at 37 degrees C and 5% CO2. Using a Multidrop Combi, 2 uL of ABD Ca8 no wash dye plus quencher is added to each well. The assay plates incubate at room temperature in the dark for 45-90 minutes. The assay plate is read on the FDSS using the following protocol: 10 second baseline read, 23 nL of compounds and controls are added using 1536 pintool, agonist read for 110 seconds, 1 uL EC80 addition (4 uM final 54-4 diluted in media), antagonist read for 110 seconds.
% is set by controls: 0 for no effect and ±100 for the full control effect.

SMILES	activity change, negative = inhibition
COc1ccc(-c2ncc3ccccn23)cc1	inconclusive: -35.7%
CCOC(=O)c1c(C)[nH]c(C)c1S(=O)(=O)N1CCC(C(=O)N2CCN(c3ccc(Cl)cc3)CC2)CC1	inconclusive: -38.5%
O=C(Nc1cccnc1)c1ccc2snnc2c1	inactive: -2.04%
CCOc1cc(C(=O)CCC(=O)OCC(=O)NC(=O)NCC(C)C)ccc1O	inconclusive: -30.4%
Cn1c(N)c(C(=O)COC(=O)c2ccccc2C(=O)c2ccc(Cl)c([N+](=O)[O-])c2)c(=O)n(C)c1=O	inactive: -12.4%
COc1cccc(/C=N/NC(=O)CSc2nnc(C)n2-c2ccccc2)c1OC	inconclusive: -30.6%
CCOc1ccc(NC(=O)c2cc3sc(Cl)cc3n2CC)cc1	inconclusive: -37.3%
O=C(/C=C/c1cccc(Cl)c1)N1CCC(Cc2ccccc2)CC1	inconclusive: -38.4%
Cc1cccc(NC(=O)C(C)OC(=O)c2ccccc2NS(=O)(=O)c2cc(C)c(C)c([N+](=O)[O-])c2)c1 (stereo not given)	inactive: 1.39%
Nc1nnc(SCC(=O)N2CCN(Cc3ccccc3)CC2)s1	inconclusive: -46.6%
Cc1cccc(N2CCN(CCCNC(=O)Cn3ncc4c([nH]c5ccccc54)c3=O)CC2C)c1 (stereo not given)	inactive: 23.2%
C[C@@]12C=Cc3occc3[C@H]1CC[C@]13CC(=O)[C@@H](CC[C@H]12)C3	inactive: 1.5%
Cc1ccc(NC(=O)CN(C)Cc2cc(=O)n3ccsc3n2)cc1	inactive: 14.6%
Cc1cnc(C(=O)N2CCCC(C(=O)c3cccc(OC(C)C)c3)C2)cn1 (stereo not given)	inconclusive: -32%
CCOc1ccc(CN2CCN(Cc3cc4c(cc3Cl)OCO4)CC2CCO)cc1 (stereo not given)	inactive: 10.6%
Cc1ccc(C(=O)c2c3ccc([N+](=O)[O-])cc3[n+]([O-])n2CCC(N)=O)cc1	inactive: 12.6%
Cc1ccc(-c2ccc(/C=C3\SC(N4CCOCC4)=NC3=O)o2)cc1	inactive: 3.14%
CC(=O)c1cccc(NC(=O)C(OC(=O)c2ccccc2NS(=O)(=O)c2cccs2)c2ccccc2)c1 (stereo not given)	inconclusive: -33.5%
O=C1N=C(N2CCOCC2)S/C1=C/c1ccc(-c2ccc(F)cc2)o1	inactive: -3.95%
COCCOC(=O)C1=C(C)NC(=S)NC1c1cccs1 (stereo not given)	inactive: 2.66%
CC1(C(=O)NS(=O)(=O)c2ccccc2)CCN1C(=O)c1ccc(C2CCCCC2)cc1 (stereo not given)	inconclusive: -32.2%
COc1ccc(-c2nc3cc(NC(=O)COc4ccccc4C)ccc3o2)cc1	inconclusive: -47.5%

SMILES	activity change, negative = inhibition
Cc1ccccc1C(=O)Nc1cccc(NC(=O)c2cccnc2)c1	inactive: -2.8%
O=C(CCc1nnc(C2CCCCC2)o1)NCCCOc1cccnc1	inconclusive: -41%
COc1ccc(CCNC(=S)NC(=O)c2ccccc2)cc1C	inconclusive: -30.6%
Cc1ccc(Oc2nc3ccccn3c(=O)c2/C=C(\C#N)C(=O)Nc2c(C)n(C)n(-c3ccccc3)c2=O)c(C)c1	inconclusive: -31.7%
O=C1Nc2ccccc2SC(c2ccccc2)C1O (stereo not given)	inactive: 15.8%
Cc1ccc(NC(=O)CS(=O)CC(=O)NCCCc2ccccc2)cc1Cl (stereo not given)	inconclusive: -31%
O=C(CN1C(=O)CSC1=O)Nc1ccc(C(=O)O)cc1	inconclusive: -31.9%
CCN1C(=O)[C@H]2[C@@H](c3ccc(-c4cccc(Cl)c4)c(OC)c3)N[C@@](C)(C(=O)OC)[C@H]2C1=O	inconclusive: -32.6%
CCCCC1=CC2=CC(=O)C(C)(OC(=O)CC)C(=O)C2=CN1CCc1ccccn1 (stereo not given)	active: -53.7%
Cc1cc(Br)c(Cl)cc1NC(=O)CN1C(=O)C2C3CC(c4ccccc4)C(C3)C2C1=O (stereo not given)	inconclusive: -32%
Cc1cccc(C(=O)NCC(c2ccc3c(c2)OCO3)N2CCOCC2)c1 (stereo not given)	inactive: 6.21%
O=C(NCCc1ccccc1)C(=O)NCC(c1cccnc1)N1CCN(c2ccc(F)cc2)CC1 (stereo not given)	inconclusive: -32.1%
Cc1ccc(S(=O)(=O)N2C[C@H]3C(=O)C[C@@H](c4ccccc4)N(S(=O)(=O)c4ccc(C)cc4)[C@H]3C[C@H]2c2cccc(C)c2)cc1	inconclusive: -33%
CCOc1ccc(/C=C2/SC(=O)NC2=S)cc1	inactive: 6.92%
COc1ccc(CCN(C)c2ncnc3sccc23)cc1OC	inconclusive: -40.6%
CCOCCn1c(-c2ccc(OC)cc2)nc2ccccc21	inconclusive: -34.7%
CC1(C)CC(NC(=O)Cc2ccccc2)CC(C)(C)N1	inconclusive: -35%
CCOC(=O)c1cc(NC(=O)c2ccccc2)c(=O)oc1-c1ccccc1	inconclusive: -35.7%
Cn1c(C(=O)OCC(=O)NCCc2ccccc2)cc2sccc21	inconclusive: -33.8%
O=C(c1[nH]c(C(F)(F)F)nc1-c1ccccc1)N1CCC(C(O)(c2ccccc2)c2ccccc2)CC1	inconclusive: -38.5%
CC(C)(C)NC(=O)C(c1ccc(OCC(N)=O)cc1)N(C(=O)c1cccnc1)C1CC1 (stereo not given)	inconclusive: -34.1%
Fc1ccc(-n2cc(-c3ccccc3)c3c(N4CCOCC4)ncnc32)cc1	inactive: -12%

SMILES	activity change, negative = inhibition
CC(C)(C)OC(=O)CN1C(=O)NC(Cc2c[nH]c3ccccc23)C1=O (stereo not given)	inconclusive: -34.4%
CCOC(=O)C1CCCN(C(=O)c2ccc3c(c2)N(Cc2ccccc2)C(=O)c2ccccc2S3=O)C1 (stereo not given)	inconclusive: -30.6%
Cc1ccc(S(=O)(=O)NCc2ccc(N3CCN(C(=O)OC(C)(C)C)CC3)cc2)cc1	inconclusive: -30.7%
COc1cccc(/C=N/Nc2nc(Nc3ccccc3)nc(-n3nc(C)cc3C)n2)c1O	active: -52.4%
COc1cccc(Nc2nc3ccccc3nc2NS(=O)(=O)c2ccc(NC(C)=O)cc2)c1	inactive: -3.77%
COc1cc(/C=C2\N=C(C)OC2=O)cc(Cl)c1OC(C)=O	inconclusive: -30.2%
O=C(NCCN1CCCCC1)Nc1ccc(Br)cc1	inactive: 1.27%
Cc1ccccc1OCCSc1nc(C)c(Cc2ccccc2)c(=O)[nH]1	inactive: -21.6%
Cc1ccc(-c2nnc(Nc3ccc(Cl)cc3)c3ccccc23)cc1S(=O)(=O)N1CCOCC1	inactive: 47.6%
Cc1cccc(N2CCN(C(=O)c3c(C)oc4nc(C)nc(N5CCCC5)c34)CC2C)c1 (stereo not given)	inconclusive: -30.8%
O=[N+]([O-])c1ccc(/C=N/N2CCN(Cc3ccccc3)CC2)cc1	inactive: 40.4%
CC(C)c1nnc(NC(=O)CCC(=O)NC2CCCc3ccccc32)s1 (stereo not given)	inconclusive: -31.1%
CN(C)C(=S)Nc1ccc2c(c1)OCCO2	inconclusive: -32.3%
CCc1ccc(N2C(=O)CC(c3cc(OC)ccc3OC)C3=C2COC3=O)cc1 (stereo not given)	inconclusive: -36%
COc1ccc(C(=O)Cn2c(=N)n(C)c3ccccc32)cc1	inactive: -11.5%
COc1ccc(CNC(=O)CN(c2ccccc2OC)S(=O)(=O)c2ccc(C)cc2)cc1	inconclusive: -40.4%
Cc1ccc(C)c(NC(=O)CSc2ncc3c(n2)-c2ccc(Cl)cc2N(C)S3(=O)=O)c1	inactive: -3.8%
CCOC(=O)c1sc(NC(=O)c2cc3c(s2)CCC(C)C3)nc1C (stereo not given)	inconclusive: -31.2%
Cc1ccc(NC(=O)CSc2nc3nccnc3c(=O)n2CCc2c[nH]c3ccccc23)cc1	inactive: -18.1%
O=C(c1ccc(CSc2ccccc2)cc1)N1CCCCCC1	inconclusive: -30.5%
CCc1ccccc1NC(=O)Cn1c(=O)nc(-c2ccccc2)c2ccccc21	inconclusive: -30.4%
O=C(O)CCn1c(-c2ccccc2)cc2ccccc21	inconclusive: -39%

SMILES	activity change, negative = inhibition
Cc1ccc(C(=O)Nc2nnc(-c3ccco3)o2)cc1C	inactive: 1.64%
COCCN(Cc1cn(C)nc1-c1ccccc1F)C(C)C	inconclusive: -31.7%
CCN(CC)c1ccc2cc(-c3nc4ccccc4[nH]3)c(=O)oc2c1	inconclusive: -31.7%
O=C(NCCc1cccc(F)c1)C1CCC(=O)N(C2CCCCCC2)C1 (stereo not given)	inconclusive: -49.8%
C[C@H](CO)N1C[C@H](C)[C@@H](CN(C)C(=O)c2ccncc2)OCc2cnnn2CCCC1=O	inactive: -8.64%
CC(C)c1ccc(NC2(C#N)C(=O)Nc3ccccc32)cc1 (stereo not given)	inactive: -15%
CC1CCC(NC(=O)c2ccc(CS(=O)(=O)c3c(Cl)cccc3Cl)o2)CC1 (stereo not given)	inactive: 16.1%
CC1(C)CN(c2ccc(Br)cc2Br)C1=O	inactive: 0.317%
Cc1ccc(CN(C)S(=O)(=O)c2c(C)noc2/C=C/N(C)C)cc1	inactive: 1.83%
O=C(Nc1ccc(OCc2cc(=O)n3ccccc3n2)cc1)c1ccccc1Cl	inactive: 28.3%
COc1ccccc1CNc1nc2nc(C)cc(=O)n2[nH]1	inconclusive: -36%
COCCn1c(=S)[nH]c2sc3c(c2c1=O)CCC(C)C3 (stereo not given)	inactive: -13.3%
CCOc1ccc(N2CC(C(=O)Nc3cc(C)on3)CC2=O)cc1 (stereo not given)	inconclusive: -33.4%
CC(C)c1cnc2c(c1SCC(=O)NC(C)(C)C)c(=O)n(C)c(=O)n2C	inconclusive: -31%
CCOc1ccc(-n2c(C)cc(/C=C3/C(=N)N4C(=NC3=O)SN=C4S(C)(=O)=O)c2C)cc1	inactive: -1.55%
N#C/C(=C\c1cccc(O)c1)c1nc2ccccc2o1	inconclusive: -35.3%
O=C(Nc1ccc(N2CCCCC2)cc1)c1ccc2ccccc2n1	inconclusive: -39.6%
CCOc1ncccc1C(=O)Nc1cccc(Cl)c1Cl	inconclusive: -30%
O=C(Nc1ccc2ncccc2c1)Nc1ccc2ncccc2c1	inactive: 10.2%

Quoted from above (14 entries):
SMILES	activity change, negative = inhibition
COCCN(Cc1cn(C)nc1-c1ccccc1F)C(C)C	inconclusive: -31.7%
CCN(CC)c1ccc2cc(-c3nc4ccccc4[nH]3)c(=O)oc2c1	inconclusive: -31.7%
O=C(NCCc1cccc(F)c1)C1CCC(=O)N(C2CCCCCC2)C1 (stereo not given)	inconclusive: -49.8%
C[C@H](CO)N1C[C@H](C)[C@@H](CN(C)C(=O)c2ccncc2)OCc2cnnn2CCCC1=O	inactive: -8.64%
CC(C)c1ccc(NC2(C#N)C(=O)Nc3ccccc32)cc1 (stereo not given)	inactive: -15%
CC1CCC(NC(=O)c2ccc(CS(=O)(=O)c3c(Cl)cccc3Cl)o2)CC1 (stereo not given)	inactive: 16.1%
CC1(C)CN(c2ccc(Br)cc2Br)C1=O	inactive: 0.317%
Cc1ccc(CN(C)S(=O)(=O)c2c(C)noc2/C=C/N(C)C)cc1	inactive: 1.83%
O=C(Nc1ccc(OCc2cc(=O)n3ccccc3n2)cc1)c1ccccc1Cl	inactive: 28.3%
COc1ccccc1CNc1nc2nc(C)cc(=O)n2[nH]1	inconclusive: -36%
COCCn1c(=S)[nH]c2sc3c(c2c1=O)CCC(C)C3 (stereo not given)	inactive: -13.3%
CCOc1ccc(N2CC(C(=O)Nc3cc(C)on3)CC2=O)cc1 (stereo not given)	inconclusive: -33.4%
CC(C)c1cnc2c(c1SCC(=O)NC(C)(C)C)c(=O)n(C)c(=O)n2C	inconclusive: -31%
CCOc1ccc(-n2c(C)cc(/C=C3/C(=N)N4C(=NC3=O)SN=C4S(C)(=O)=O)c2C)cc1	inactive: -1.55%
